Test results as given in paper PMC9339965.
These are yes or no findings as the source states them, for the method shown. For some of these results: In cells and extracts the contact can be indirect. Some binding calls cover weakened binding; strength is not graded here. For some of these results: Where a sequence is shown, tags or fusion partners need not be part of it.

By UniProt entry, the sequences of proteins in these tests, tags left out. Where a name states a change or a piece, a line headed by the entry shows the natural chain unless it says otherwise. Chains listed by the source or under a name are the forms on record and can include a tag or linker. Residues count along the entry.
UniProt Q92838: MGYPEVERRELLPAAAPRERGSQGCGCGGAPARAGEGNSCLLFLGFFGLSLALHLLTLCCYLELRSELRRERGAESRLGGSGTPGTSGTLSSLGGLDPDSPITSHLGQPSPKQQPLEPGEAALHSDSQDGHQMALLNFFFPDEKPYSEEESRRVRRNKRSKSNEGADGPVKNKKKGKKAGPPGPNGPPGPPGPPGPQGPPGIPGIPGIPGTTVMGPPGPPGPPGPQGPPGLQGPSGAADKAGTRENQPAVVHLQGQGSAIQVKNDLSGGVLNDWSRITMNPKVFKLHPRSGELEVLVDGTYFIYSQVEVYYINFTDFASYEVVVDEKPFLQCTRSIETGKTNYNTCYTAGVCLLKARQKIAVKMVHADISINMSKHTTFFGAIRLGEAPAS
soluble Flag-EDA, wild type (starting at Ser66): residues 66-391 of Q92838
soluble Flag-EDA1-Arg153Cys (starting at Ser66) (Q92838-1, form named): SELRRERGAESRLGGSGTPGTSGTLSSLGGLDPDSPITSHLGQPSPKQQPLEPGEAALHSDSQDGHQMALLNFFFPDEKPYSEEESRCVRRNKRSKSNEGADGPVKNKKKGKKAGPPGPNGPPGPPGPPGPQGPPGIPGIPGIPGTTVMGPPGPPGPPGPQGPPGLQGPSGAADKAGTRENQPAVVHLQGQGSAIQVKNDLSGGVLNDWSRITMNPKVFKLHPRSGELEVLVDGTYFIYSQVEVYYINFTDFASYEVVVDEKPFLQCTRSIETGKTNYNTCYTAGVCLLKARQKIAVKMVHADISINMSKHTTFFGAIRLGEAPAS
soluble Flag-EDA1-Arg156Cys (starting at Ser66) (Q92838-1, form named): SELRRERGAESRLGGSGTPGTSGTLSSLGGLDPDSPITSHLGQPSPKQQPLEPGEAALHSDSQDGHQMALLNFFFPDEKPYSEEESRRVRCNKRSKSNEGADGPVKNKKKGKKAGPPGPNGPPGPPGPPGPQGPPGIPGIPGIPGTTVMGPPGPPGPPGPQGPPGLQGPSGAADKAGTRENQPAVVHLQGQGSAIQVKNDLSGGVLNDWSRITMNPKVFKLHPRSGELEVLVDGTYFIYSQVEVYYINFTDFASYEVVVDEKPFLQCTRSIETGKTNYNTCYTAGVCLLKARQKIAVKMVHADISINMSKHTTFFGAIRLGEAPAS
soluble Flag-EDA1-Arg156His (starting at Ser66) (Q92838-1, form named): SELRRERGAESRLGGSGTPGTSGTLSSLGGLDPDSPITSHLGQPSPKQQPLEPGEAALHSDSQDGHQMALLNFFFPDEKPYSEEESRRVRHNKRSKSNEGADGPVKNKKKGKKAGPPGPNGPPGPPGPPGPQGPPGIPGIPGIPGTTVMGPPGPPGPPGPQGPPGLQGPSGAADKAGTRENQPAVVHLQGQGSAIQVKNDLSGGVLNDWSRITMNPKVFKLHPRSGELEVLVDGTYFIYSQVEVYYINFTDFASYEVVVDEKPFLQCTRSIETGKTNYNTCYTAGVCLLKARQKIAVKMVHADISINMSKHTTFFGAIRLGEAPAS
soluble Flag-EDA1-Ser125Cys (starting at Ser66) (Q92838-1, form named): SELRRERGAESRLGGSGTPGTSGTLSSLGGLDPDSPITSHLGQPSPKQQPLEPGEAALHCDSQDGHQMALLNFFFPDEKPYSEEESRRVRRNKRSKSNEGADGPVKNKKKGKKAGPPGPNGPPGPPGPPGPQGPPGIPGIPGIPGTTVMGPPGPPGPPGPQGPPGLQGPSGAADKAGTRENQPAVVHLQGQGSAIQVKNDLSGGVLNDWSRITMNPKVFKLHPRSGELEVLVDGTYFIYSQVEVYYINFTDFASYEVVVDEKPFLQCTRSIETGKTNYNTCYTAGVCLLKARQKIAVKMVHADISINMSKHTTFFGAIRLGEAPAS
full-length EDA1-Gly176Val, on HEK 293T cells (Q92838-1, form named): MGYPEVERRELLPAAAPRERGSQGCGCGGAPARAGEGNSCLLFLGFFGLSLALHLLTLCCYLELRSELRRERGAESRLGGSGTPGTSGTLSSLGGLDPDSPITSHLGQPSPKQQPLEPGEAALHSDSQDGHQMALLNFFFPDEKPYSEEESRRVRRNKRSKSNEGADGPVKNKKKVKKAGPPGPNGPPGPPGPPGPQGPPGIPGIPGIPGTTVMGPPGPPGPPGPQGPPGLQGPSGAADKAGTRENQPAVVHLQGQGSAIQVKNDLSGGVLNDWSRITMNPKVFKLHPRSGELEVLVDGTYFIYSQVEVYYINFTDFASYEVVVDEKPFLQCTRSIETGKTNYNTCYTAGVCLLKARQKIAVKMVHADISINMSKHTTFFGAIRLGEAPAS

T1: EDAR-Fc (UniProt Q9UNE0)
T1 sequence: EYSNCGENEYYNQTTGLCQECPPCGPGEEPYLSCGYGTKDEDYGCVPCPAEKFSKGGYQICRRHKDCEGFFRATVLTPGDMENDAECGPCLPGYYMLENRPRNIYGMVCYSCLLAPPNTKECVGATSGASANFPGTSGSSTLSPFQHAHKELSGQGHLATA


How the values were obtained:
[1] = target: soluble Flag-EDA1-Arg153Cys (starting at Ser66) (human) (UniProt Q92838); test: non-reducing SDS-PAGE and Western blot (inter-chain disulfide bonds); anti-Flag immunoprecipitates of conditioned medium, run without DTT against with DTT; Western blot with anti-Flag M2
EDAR-Fc = target: T1, EDAR-Fc; test: pull-down; conditioned medium of transfected HEK 293T cells on beads coupled to EDAR-Fc (TACI-Fc beads as control); washed, eluted with 50 mM Na-citrate pH 2.7; Western blot with anti-EDA Renzo-2; the paper calls it co-immunoprecipitation; only the target purified
[2] = target: soluble Flag-EDA1-Arg156Cys (starting at Ser66) (human) (UniProt Q92838); test: non-reducing SDS-PAGE and Western blot (inter-chain disulfide bonds); anti-Flag immunoprecipitates of conditioned medium, run without DTT against with DTT; Western blot with anti-Flag M2
[3] = target: soluble Flag-EDA1-Ser125Cys (starting at Ser66) (human) (UniProt Q92838); test: as above
[4] = target: full-length EDA1, wild type, on HEK 293T cells (human) (UniProt Q92838); test: flow cytometry on cells; HEK 293T cells transfected with full-length EDA (WT or variants), 3 days after transfection; stained in PBS, 5% FCS, 2 mM EDTA, 1 IU/ml liquemin with EDAR-Fc at 50 μg/ml, then phycoerythrin-coupled goat anti-human IgG; read-out geoMFI; only the binder purified
[5] = target: full-length EDA1-Gly176Val, on HEK 293T cells (human) (UniProt Q92838); test: as above

Row | Molecule | binding (EDAR-Fc) | other results
1 | soluble Flag-EDA1-Arg153Cys (starting at Ser66) (from UniProt Q92838-1 66-391) (ligand) | binds | binding [1]: binds
2 | soluble Flag-EDA1-Arg156Cys (starting at Ser66) (from UniProt Q92838-1 66-391) (ligand) | binds | binding [2]: binds
3 | soluble Flag-EDA1-Ser125Cys (starting at Ser66) (from UniProt Q92838-1 66-391) (ligand) | binds | binding [3]: binds
4 | EDAR-Fc (Fc fusion, UniProt Q9UNE0 27-187) EYSNCGENEYYNQTTGLCQECPPCGPGEEPYLSCGYGTKDEDYGCVPCPAEKFSKGGYQICRRHKDCEGFFRATVLTPGDMENDAECGPCLPGYYMLENRPRNIYGMVCYSCLLAPPNTKECVGATSGASANFPGTSGSSTLSPFQHAHKELSGQGHLATA |  | binding [4]: binds; binding [5]: binds

Further lines, with some results ahead:

Row | binding (EDAR-Fc) | Molecule | other results
5 | binds | soluble Flag-EDA1-Arg156His (starting at Ser66) (from UniProt Q92838-1 66-391) (ligand) | 
6 | binds | soluble Flag-EDA, wild type (starting at Ser66) (from UniProt Q92838-1 66-391) (ligand) | 
